# Primary screen of a compound library

Values are the deposited “Percent Effect”, in %. How 0% and 100% were set is not recorded. Most values in the screen are low, and negative values occur. The compounds are a random part of those screened.

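Assay of Toxoplasma gondii numbers, read through their beta-galactosidase reporter with a colour substrate. Concentration: 50 µM. The record gives no direction; the compounds picked for IC50 retests had high values, so higher reads as fewer parasites. Of about 18,000 compounds tested this way, about 170 (0.94%) reached 50% or more in at least one test.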

compound	effect
NC1CCCN(c2cccc(F)c2)C1 (stereo not shown)	-31.93%
COCC(=O)NCCc1noc(-c2ccccc2)n1	-1.407%
O=S(=O)(NCC1(NS(=O)(=O)C2CC2)CCC1)C1CC1	0.9564%
CN(CCCN)C(=O)Cc1ccccc1Br	-7.511%
CN1CCCC(CNC(=O)N2CCSC(C)(C)C2)C1 (stereo not shown)	-3.935%
CCN(C)S(=O)(=O)N(CC(C)O)C1CCCCC1 (stereo not shown)	23.11%
COCCNC(=O)c1csc(-c2ccco2)n1	8.364%
CNC(=O)[C@@H]1CC(=O)N(C)[C@H]1c1cccnc1	-3.462%
Cc1noc(C(O)c2ccccc2)n1 (stereo not shown)	11.86%
CC(=O)c1ccc(C(=O)NCC(C)N2CCCC2)s1 (stereo not shown)	-26.31%
CC(=O)c1c[nH]c(C(=O)NC(C)Cc2ccco2)c1 (stereo not shown)	-15.6%
CC(=O)NCc1ccc(C(=O)CSc2ccccn2)s1	2.974%
CN(C)C1(CNC(=O)c2cc(Br)c[nH]2)CCOCC1	1.348%
CCN(CCCNC(=O)c1cccnc1O)S(C)(=O)=O	4.045%
CNC1CCN(c2ccccn2)CC1	1.66%
Cc1ccc(OCCN2CCOCC2)cc1	-4.655%
O=C(c1ccc(Br)o1)N1CCN(Cc2ccco2)CC1	0.7108%
CC(=O)c1ccc(Br)o1	1.756%
C[S+]([O-])c1nncn1Cc1cccc2cccnc12 (stereo not shown)	-6.749%
NCC(=O)N1CCC(C(N)=O)CC1	-1.463%
NC(=O)CCN1C(=O)c2ccccc2S1(=O)=O	-1.889%
COc1ccc(OC)c(NC(=O)CNC(C)C)c1	-4.99%
Cc1cc(CN(C)C(=O)Cc2ccccc2F)no1	-19.06%
CCc1ccc(CNc2ccc(CO)cn2)cc1	-3.727%
NCCCc1cccc(F)c1	19.13%
CCCn1ncnc1-c1ccc(S(C)(=O)=O)cc1	0.535%
c1nn[nH]c1SCCNC1CCOC2(CCOCC2)C1 (stereo not shown)	-9.214%
C(Cc1noc(C2CNC2)n1)OCC1CC1	84.88%
COc1ccc(Cl)cc1C(=O)N1C[C@H](O)[C@@H](N(C)C)C1	7.108%
COCc1cc(=O)[nH]c(C2(N)CCCCC2)n1	-3.036%
CN1CCCN(C(=O)COc2cccc(Cl)c2)CC1	-0.4128%
CCOC(=O)C(C)(C)n1cc(N)cn1	8.481%
NC(=O)CSc1nc(-c2ccc(Br)cc2)c[nH]1	-11.54%
COc1ccc(CNC(=O)CCNC(=O)C(C)C)cc1	0.1037%
N#CCC(=O)C1CCCOC1 (stereo not shown)	-9.613%
NC(=O)C1CCN(CCOc2ccccc2F)CC1	-5.356%
CC(C)N(CCS(C)(=O)=O)C(=O)NCc1cccs1	-7.448%
Cn1cccc1CNCCNC(=O)c1ccn[nH]1	1.846%
N#Cc1ccc(OCc2cc(=O)n3ccsc3n2)cc1	-17.24%
O=S(=O)(CCN1CCCC1)c1ccccc1	8.057%
COCCS(=O)(=O)NC(C)C1CC1 (stereo not shown)	-7.989%
COc1ccc(S(=O)(=O)N(C)C)cc1NCC1CC1	43.98%
COCCN(c1ccncc1)S(=O)(=O)c1cccs1	-16.06%
OCc1cc(Br)cs1	-1.793%
COC(=O)c1ccc(C(=O)NC2(C#N)CCCC2)cc1	-9.94%
Cc1cccc(CN2CCC(N)CC2)c1	21.63%
CS(=O)(=O)NCc1ccnc(O)c1	-1.678%
Cc1cc(C(=O)N2CCN(C)C(=O)C2(C)C)c(C)o1	2.809%
Cc1cscc1C(=O)Nc1ncnn1C	11.95%
Cc1nn(C)c(Cl)c1C1CCCN1 (stereo not shown)	-6.202%
Cn1cc(CN(C(=O)c2ccc(N)nc2)C2CC2)cn1	96.08%
CCC(C(=O)NCc1cn2c(n1)SCC2)n1cccn1 (stereo not shown)	-7.988%
O=C(Nc1ncccn1)OCC(F)(F)F	-5.554%
CN(C)c1ccc(CCNC(=O)[C@H]2CCCN2)cc1	-18.61%
O=C(NCCCc1ccccn1)[C@]12CNC[C@H]1CNC2	1.944%
Cc1csc(CCCNC(=O)Cn2nc(C)cc2N)n1	-13.72%
NC(=O)C1CCCN1C(=O)CSc1ccccc1Cl (stereo not shown)	-7.199%
CN(C)CCOc1cc(C#N)ccn1	-4.707%
Cc1ccccc1N1C(=O)C=CC1=O	-13.42%
NC(=O)CCn1ccnc1C(=O)c1ccccc1	-10.41%
CN(C)c1cncc(N2CC[C@](C)(O)[C@@H](O)C2)n1	-1.028%
CN(Cc1cnn(C)c1)C(=O)C1CCC(=O)NC1 (stereo not shown)	-15.28%
OCCNCc1cc(Br)ccc1F	-5.57%
CC(=O)NCCCSCc1csc(NC(C)=O)n1	-0.4903%
CN(CCS(=O)(=O)c1ccc(Cl)cc1)CC(=O)N(C)C	-12.19%
CC(C)NS(=O)(=O)C1CCNC1 (stereo not shown)	-0.4391%
COCC(C)NC(=O)OCC(F)(F)F (stereo not shown)	-1.214%
COc1ccc(S(=O)(=O)N2CCCCC2)cc1OC	-12.37%
CN(C)S(=O)(=O)c1ccc(COC(=O)C2CC2)o1	0.9806%
O=C(CC1COCCN1)N1CCC(c2ncc[nH]2)CC1 (stereo not shown)	-8.43%
CC(C)c1[nH][nH]c(=O)c1CCN	-7.448%
Cn1ncc2ccc(CN)cc21	9.218%
COC(=O)NCCC(=O)N(C)C(C)CC(C)C (stereo not shown)	-0.6329%
COCc1[nH][nH]c(=O)c1CCN	-30.62%
CCCN(CCO)CCC(=O)N1CCc2sccc2C1	11.29%
Cc1cccc(N2CCN(CCC(N)=O)CC2)c1	-3.514%
CS(=O)(=O)NCCNCc1cnc(-c2ccccc2)s1	-8.513%
CC(c1ccccc1F)N1CC(=O)N(C)C1 (stereo not shown)	1.11%
COCc1noc(C2CCN(CC(F)(F)F)CC2)n1	-1.007%
CC(C)CC(O)C1CCNCC1 (stereo not shown)	5.179%
COc1ccnc(N2CCN(S(C)(=O)=O)CC2)n1	24.52%
CN(C)[C@@H]1CN(C(=O)c2ccncc2F)C[C@H]1CO	-7.898%
CCO[C@H]1CN(C(=O)c2nn(C)c(C)c2Cl)C[C@@H]1O	1.146%
CC(Sc1ccccn1)C(=O)NCCn1ccnc1 (stereo not shown)	-3.955%

The first 8 entries again:

| compound | effect |
|---|---|
| `NC1CCCN(c2cccc(F)c2)C1` (stereo not shown) | -31.93% |
| `COCC(=O)NCCc1noc(-c2ccccc2)n1` | -1.407% |
| `O=S(=O)(NCC1(NS(=O)(=O)C2CC2)CCC1)C1CC1` | 0.9564% |
| `CN(CCCN)C(=O)Cc1ccccc1Br` | -7.511% |
| `CN1CCCC(CNC(=O)N2CCSC(C)(C)C2)C1` (stereo not shown) | -3.935% |
| `CCN(C)S(=O)(=O)N(CC(C)O)C1CCCCC1` (stereo not shown) | 23.11% |
| `COCCNC(=O)c1csc(-c2ccco2)n1` | 8.364% |
| `CNC(=O)[C@@H]1CC(=O)N(C)[C@H]1c1cccnc1` | -3.462% |

Measurements from “University of Dundee, Small-Polar-MMV Screening Library” (2021), ChEMBL document CHEMBL3988442.